# In publication PMC4059726:
# Sequences of proteins named here, by UniProt entry; tags and fusion partners are left off.
# UniProt P21333: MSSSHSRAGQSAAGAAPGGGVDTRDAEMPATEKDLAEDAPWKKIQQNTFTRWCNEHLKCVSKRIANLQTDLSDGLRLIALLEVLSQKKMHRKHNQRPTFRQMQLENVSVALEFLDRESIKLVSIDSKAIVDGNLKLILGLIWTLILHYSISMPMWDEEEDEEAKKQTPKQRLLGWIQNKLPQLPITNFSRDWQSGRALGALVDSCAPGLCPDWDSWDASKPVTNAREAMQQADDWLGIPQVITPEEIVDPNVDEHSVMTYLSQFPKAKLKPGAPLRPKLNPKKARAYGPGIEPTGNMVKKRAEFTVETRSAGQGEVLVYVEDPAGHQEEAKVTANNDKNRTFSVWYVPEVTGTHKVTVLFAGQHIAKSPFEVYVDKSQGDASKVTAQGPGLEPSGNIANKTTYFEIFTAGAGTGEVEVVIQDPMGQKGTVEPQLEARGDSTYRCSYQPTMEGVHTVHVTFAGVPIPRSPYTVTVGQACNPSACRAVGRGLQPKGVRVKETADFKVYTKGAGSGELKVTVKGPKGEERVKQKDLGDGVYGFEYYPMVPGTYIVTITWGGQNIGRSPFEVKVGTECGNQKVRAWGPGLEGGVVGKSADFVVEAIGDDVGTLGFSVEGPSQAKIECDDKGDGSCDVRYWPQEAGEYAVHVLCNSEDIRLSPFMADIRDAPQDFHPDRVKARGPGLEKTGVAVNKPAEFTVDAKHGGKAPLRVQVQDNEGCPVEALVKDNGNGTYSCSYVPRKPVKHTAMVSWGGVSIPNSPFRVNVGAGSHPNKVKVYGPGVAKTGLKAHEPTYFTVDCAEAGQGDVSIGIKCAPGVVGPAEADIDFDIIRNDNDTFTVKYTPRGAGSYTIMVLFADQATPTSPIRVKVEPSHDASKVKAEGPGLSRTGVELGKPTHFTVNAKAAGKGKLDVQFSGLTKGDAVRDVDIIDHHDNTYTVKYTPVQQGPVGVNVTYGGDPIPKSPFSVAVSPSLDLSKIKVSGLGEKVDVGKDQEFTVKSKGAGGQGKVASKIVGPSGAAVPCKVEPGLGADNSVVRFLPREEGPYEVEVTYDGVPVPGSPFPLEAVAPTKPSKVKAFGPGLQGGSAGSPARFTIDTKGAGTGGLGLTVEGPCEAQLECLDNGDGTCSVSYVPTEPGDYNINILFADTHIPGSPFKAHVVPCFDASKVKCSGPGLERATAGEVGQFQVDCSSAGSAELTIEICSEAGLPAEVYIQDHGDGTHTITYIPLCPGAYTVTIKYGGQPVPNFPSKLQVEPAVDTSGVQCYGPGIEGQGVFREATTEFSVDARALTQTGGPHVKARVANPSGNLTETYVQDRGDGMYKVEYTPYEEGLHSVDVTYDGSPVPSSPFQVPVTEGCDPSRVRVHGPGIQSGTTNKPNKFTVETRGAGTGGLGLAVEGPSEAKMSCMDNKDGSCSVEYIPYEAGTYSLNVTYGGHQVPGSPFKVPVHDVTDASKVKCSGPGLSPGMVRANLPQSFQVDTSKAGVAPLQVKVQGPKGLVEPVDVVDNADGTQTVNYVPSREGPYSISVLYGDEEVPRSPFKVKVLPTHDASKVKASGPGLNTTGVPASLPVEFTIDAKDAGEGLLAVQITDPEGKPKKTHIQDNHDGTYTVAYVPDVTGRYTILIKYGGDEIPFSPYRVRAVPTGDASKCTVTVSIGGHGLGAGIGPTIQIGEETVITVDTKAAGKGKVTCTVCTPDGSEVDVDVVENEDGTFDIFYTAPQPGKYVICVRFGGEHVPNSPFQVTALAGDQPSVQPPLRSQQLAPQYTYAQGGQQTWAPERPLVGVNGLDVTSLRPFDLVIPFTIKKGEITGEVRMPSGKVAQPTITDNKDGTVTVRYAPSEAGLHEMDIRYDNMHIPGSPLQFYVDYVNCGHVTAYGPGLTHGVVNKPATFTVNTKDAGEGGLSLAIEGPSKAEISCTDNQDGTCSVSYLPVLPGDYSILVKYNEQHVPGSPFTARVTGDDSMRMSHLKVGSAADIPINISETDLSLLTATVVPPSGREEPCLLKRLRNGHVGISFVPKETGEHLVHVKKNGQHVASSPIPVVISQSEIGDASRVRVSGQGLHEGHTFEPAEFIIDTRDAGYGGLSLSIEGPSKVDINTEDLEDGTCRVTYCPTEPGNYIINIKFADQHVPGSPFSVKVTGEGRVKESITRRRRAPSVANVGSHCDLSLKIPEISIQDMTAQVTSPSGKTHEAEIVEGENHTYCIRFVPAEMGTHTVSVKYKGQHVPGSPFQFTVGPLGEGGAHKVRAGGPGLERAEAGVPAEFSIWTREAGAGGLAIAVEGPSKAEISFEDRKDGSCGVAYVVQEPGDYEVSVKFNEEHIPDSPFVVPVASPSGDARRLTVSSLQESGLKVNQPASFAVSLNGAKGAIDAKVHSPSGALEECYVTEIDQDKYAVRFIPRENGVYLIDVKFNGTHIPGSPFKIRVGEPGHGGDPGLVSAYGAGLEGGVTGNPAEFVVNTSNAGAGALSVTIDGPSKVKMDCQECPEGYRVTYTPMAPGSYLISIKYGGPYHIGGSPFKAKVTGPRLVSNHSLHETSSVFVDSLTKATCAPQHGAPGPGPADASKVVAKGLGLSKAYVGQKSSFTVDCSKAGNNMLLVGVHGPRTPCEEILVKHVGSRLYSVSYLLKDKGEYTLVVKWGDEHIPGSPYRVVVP
# Results are given in words; binding and its absence hold for the method and conditions named. In cells and extracts the contact can be indirect. Some binding calls cover weakened binding; strength is not graded here. Tags and fused reporters may be left off the sequences shown.
# T1: HA-FilGAP (human) (UniProt Q8N264)
# T1 sequence: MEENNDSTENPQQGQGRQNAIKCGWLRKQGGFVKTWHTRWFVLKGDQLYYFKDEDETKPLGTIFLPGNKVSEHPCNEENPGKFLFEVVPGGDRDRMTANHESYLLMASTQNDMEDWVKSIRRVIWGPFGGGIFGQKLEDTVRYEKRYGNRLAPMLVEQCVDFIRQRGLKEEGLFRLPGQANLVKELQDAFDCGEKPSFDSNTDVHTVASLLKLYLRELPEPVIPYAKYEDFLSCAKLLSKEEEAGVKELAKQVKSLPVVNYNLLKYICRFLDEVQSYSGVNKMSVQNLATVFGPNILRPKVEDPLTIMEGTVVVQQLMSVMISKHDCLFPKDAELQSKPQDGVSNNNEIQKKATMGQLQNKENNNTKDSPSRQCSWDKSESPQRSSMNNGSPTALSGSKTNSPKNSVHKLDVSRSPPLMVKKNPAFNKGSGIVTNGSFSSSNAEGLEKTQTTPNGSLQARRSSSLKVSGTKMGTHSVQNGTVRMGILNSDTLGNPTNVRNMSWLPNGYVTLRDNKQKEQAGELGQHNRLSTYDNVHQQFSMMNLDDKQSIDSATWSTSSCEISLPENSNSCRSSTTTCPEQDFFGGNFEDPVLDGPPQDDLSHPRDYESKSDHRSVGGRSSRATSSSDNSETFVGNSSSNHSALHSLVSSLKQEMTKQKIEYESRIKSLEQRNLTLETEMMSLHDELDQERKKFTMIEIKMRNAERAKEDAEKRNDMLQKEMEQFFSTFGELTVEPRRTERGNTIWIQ
# Tests used:
# HA-FilGAP (human) [1] = target: T1, HA-FilGAP (human); assay: co-IP; HEK cells transfected with HA-ARHGAP22 or HA-FilGAP; immunoprecipitated from cell extracts with anti-HA agarose; endogenous FLNa detected by immunoblot with anti-FLNa antibody
# HA-FilGAP (human) [2] = target: T1, HA-FilGAP (human); assay: cross-linking; transfected HEK293 cells treated with DSP (1 mM, 30 min, 25°C), lysed, boiled with or without 2-mercaptoethanol; immunoblot with anti-ARHGAP22 or anti-FilGAP antibody
# HA-FilGAP (human) [3] = target: T1, HA-FilGAP (human); assay: co-IP; HEK293 cells co-transfected with the HA-tagged and the FLAG-tagged copy of the same protein; anti-HA agarose, 1 h at 4°C; 20 mM Tris-HCl pH 7.5, 150 mM NaCl, 1 mM EDTA, 0.1% NP-40; immunoblot with anti-FLAG and anti-HA
binding (HA-FilGAP (human) [1]),binding (HA-FilGAP (human) [2]),binding (HA-FilGAP (human) [3]),Molecule
binds,,,Filamin A (from UniProt P21333 1-2647)
,binds,binds,"HA-FilGAP (protein, UniProt Q8N264-1 1-748) MEENNDSTENPQQGQGRQNAIKCGWLRKQGGFVKTWHTRWFVLKGDQLYYFKDEDETKPLGTIFLPGNKVSEHPCNEENPGKFLFEVVPGGDRDRMTANHESYLLMASTQNDMEDWVKSIRRVIWGPFGGGIFGQKLEDTVRYEKRYGNRLAPMLVEQCVDFIRQRGLKEEGLFRLPGQANLVKELQDAFDCGEKPSFDSNTDVHTVASLLKLYLRELPEPVIPYAKYEDFLSCAKLLSKEEEAGVKELAKQVKSLPVVNYNLLKYICRFLDEVQSYSGVNKMSVQNLATVFGPNILRPKVEDPLTIMEGTVVVQQLMSVMISKHDCLFPKDAELQSKPQDGVSNNNEIQKKATMGQLQNKENNNTKDSPSRQCSWDKSESPQRSSMNNGSPTALSGSKTNSPKNSVHKLDVSRSPPLMVKKNPAFNKGSGIVTNGSFSSSNAEGLEKTQTTPNGSLQARRSSSLKVSGTKMGTHSVQNGTVRMGILNSDTLGNPTNVRNMSWLPNGYVTLRDNKQKEQAGELGQHNRLSTYDNVHQQFSMMNLDDKQSIDSATWSTSSCEISLPENSNSCRSSTTTCPEQDFFGGNFEDPVLDGPPQDDLSHPRDYESKSDHRSVGGRSSRATSSSDNSETFVGNSSSNHSALHSLVSSLKQEMTKQKIEYESRIKSLEQRNLTLETEMMSLHDELDQERKKFTMIEIKMRNAERAKEDAEKRNDMLQKEMEQFFSTFGELTVEPRRTERGNTIWIQ"
